Test results reported in patent publication US20030194736.
For some assays here: Tags and fusion partners may be left off the protein sequences shown. For some assays here: The exact form of at least one protein or probe is not confirmed.

Legend:
Assay in all cases: enzyme reaction in vitro
[1] = tested on: XbaI restriction endonuclease; settings: purified recombinant protein, protein details: New England Biolabs, only the site is given
[2] = tested on: N.BstNBI nicking endonuclease; settings: in plasmid pNEB200A; 10 mM MgCl2, 150 mM KCl, 55 C; purified recombinant protein; protein details: New England Biolabs; only the site is given
[3] = tested on: USER Enzyme (UDG + EndoVIII mixture); settings: deoxyuridine at position 16 (n) of top strand [n positions 16 = modified dU]; 10 pmol substrate nicked to completion by 0.2 unit UDG + at least 31.25 ng EndoVIII; 15 min 37 C, T4 ligase buffer, 10 mM MgCl2; purified recombinant protein; protein details: New England Biolabs; label: fluorescein at 5' and 3' ends of top strand
[4] = tested on: USER Enzyme 2 (UDG + FPG mixture); settings: deoxyuridine at position 16 (n) of top strand [n positions 16 = modified dU]; 10 pmol substrate nicked to completion by 0.1 unit UDG + at least 145 ng FPG (290 ng in figure legend); 15 min 37 C, 10 mM MgCl2; purified recombinant protein; label: fluorescein at 5' and 3' ends of top strand
[5] = molecular target: T1, BamHI restriction endonuclease (UniProt P23940); settings: NEBuffer 4, 37 C, purified recombinant protein, protein details: New England Biolabs, only the site is given
T1 sequence (looked up, limits assumed): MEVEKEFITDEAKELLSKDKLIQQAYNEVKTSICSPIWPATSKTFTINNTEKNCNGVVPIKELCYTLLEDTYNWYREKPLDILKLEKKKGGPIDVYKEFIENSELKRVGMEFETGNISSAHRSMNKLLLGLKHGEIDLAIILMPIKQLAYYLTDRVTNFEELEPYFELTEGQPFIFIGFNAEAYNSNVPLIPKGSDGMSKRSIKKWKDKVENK

In the case of “GCTGAGGGAAAGTCTAGATGTCTCCTCAGC (double strand) [pNEB205A cassette]”, the “activity on this sequence” value ([1]; in plasmid pNEB205A, NEBuffer 4, 10 mM Mg acetate, 37 C) was “active”.
In the case of “ACGAGACTCTAGAGGATCCTCTAGAGTCTGGT (double strand) [pNEB200A cassette]”, the “activity on this sequence” value ([1]; in plasmid pNEB200A, 10 mM MgCl2, 150 mM KCl, 37 C) was “active” and the “activity on this sequence” value [2] was “active”.
With “GATTTCATTTTTATTTATAACTTTACTTATATTG (double strand) [34-bp duplex with single dU:dA]” the “activity on this sequence” value [3] was “active” and the “activity on this sequence” value [4] was “active”.
“GCTGAGGGGGGGATCCTTTTCATGGATCCCCCCCTCAGC (double strand) [pUC-TT cassette]” was tested, and the “activity on this sequence” value ([5]; in plasmid pUC-TT) was “active”.
“GCTGAGGGGGGGATCCTTTTCATTCTAGATGTCTCCTCAGC (double strand) [pNEB210A cassette]” was tested, and the “activity on this sequence” value ([1]; in plasmid pNEB210A, NEBuffer 4, 37 C) was “active” and the “activity on this sequence” value ([5]; in plasmid pNEB210A) was “active”.
